Measured values as given in doi:10.1101/215160.
No constants are given. Whether binding was seen depends on the method and setting. In cells and extracts the contact can be indirect. Some results given as binding are weak or reduced against the parent protein; the word gives no strength. Sequences can lack the tags named with a protein.

Amino acid sequences for entries named in this document (tags omitted).
UniProt Q15437: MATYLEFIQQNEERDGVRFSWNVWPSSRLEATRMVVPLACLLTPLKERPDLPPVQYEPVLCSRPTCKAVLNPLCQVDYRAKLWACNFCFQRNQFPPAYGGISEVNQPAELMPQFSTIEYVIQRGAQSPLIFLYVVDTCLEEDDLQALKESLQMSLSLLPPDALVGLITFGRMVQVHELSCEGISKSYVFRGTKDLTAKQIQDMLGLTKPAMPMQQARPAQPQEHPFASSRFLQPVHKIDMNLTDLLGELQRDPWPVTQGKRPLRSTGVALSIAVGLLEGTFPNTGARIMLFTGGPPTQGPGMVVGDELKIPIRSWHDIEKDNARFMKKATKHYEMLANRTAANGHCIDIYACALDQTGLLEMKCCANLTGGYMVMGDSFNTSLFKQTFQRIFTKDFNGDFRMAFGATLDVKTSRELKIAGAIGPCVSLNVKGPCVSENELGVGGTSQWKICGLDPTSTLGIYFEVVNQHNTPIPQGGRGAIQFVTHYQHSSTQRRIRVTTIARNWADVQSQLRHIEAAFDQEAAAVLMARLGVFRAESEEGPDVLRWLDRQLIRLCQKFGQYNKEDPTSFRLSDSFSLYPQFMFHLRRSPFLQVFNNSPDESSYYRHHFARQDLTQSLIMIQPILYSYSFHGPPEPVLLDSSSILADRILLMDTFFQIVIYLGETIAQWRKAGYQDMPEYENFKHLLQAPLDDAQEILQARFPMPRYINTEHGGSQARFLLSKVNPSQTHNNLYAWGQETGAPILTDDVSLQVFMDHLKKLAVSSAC
UniProt Q15436: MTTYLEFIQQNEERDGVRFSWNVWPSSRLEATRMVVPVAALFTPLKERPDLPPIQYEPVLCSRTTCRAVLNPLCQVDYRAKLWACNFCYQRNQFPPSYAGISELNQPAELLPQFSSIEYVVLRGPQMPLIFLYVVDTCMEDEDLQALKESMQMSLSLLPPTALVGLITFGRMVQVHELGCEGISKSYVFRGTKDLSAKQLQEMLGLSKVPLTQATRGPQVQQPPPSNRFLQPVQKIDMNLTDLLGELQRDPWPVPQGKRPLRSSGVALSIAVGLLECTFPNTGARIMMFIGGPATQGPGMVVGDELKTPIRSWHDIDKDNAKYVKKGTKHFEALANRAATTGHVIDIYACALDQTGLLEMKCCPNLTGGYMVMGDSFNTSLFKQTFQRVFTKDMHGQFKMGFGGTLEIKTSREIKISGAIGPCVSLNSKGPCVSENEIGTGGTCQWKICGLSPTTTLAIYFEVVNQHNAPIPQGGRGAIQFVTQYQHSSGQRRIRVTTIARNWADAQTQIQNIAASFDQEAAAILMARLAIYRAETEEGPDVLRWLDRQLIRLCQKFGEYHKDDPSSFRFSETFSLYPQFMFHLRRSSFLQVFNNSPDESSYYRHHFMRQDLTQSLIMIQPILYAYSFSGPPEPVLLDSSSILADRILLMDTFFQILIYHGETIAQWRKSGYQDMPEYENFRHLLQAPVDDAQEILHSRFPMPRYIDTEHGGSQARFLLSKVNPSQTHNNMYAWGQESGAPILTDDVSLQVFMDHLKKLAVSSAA

What was measured:
[1] = target: FLAG-tagged SEC23B (not stated (human or mouse cDNA cloned)) (UniProt Q15437); assay: co-IP
[2] = target: FLAG-tagged SEC23A (not stated (human or mouse cDNA cloned)) (UniProt Q15436); assay: co-IP

| binding [1] | binding [2] | Binder |
| --- | --- | --- |
| binds | – | RFP-tagged SEC24A (protein, UniProt O95486 1-1093) MSQPGIPASGGAPASLQAQNGAALASGSPYTNGPVQNALLSSQESVSQGYNFQLPGSYPHPIPAKTLNPVSGQSNYGGSQGSGQTLNRPPVASNPVTPSLHSGPAPRMPLPASQNPATTPMPSSSFLPEANLPPPLNWQYNYPSTASQTNHCPRASSQPTVSGNTSLTTNHQYVSSGYPSLQNSFIKSGPSVPPLVNPPLPTTFQPGAPHGPPPAGGPPPVRALTPLTSSYRDVPQPLFNSAVNQEGITSNTNNGSMVVHSSYDEIEGGGLLATPQLTNKNPKMSRSVGYSYPSLPPGYQNTTPPGATGVPPSSLNYPSGPQAFTQTPLGANHLTTSMSGLSLQPEGLRVVNLLQERNMLPSTPLKPPVPNLHEDIQKLNCNPELFRCTLTSIPQTQALLNKAKLPLGLLLHPFKDLVQLPVVTSSTIVRCRSCRTYINPFVSFLDQRRWKCNLCYRVNDVPEEFLYNPLTRVYGEPHRRPEVQNATIEFMAPSEYMLRPPQPPVYLFVFDVSHNAVETGYLNSVCQSLLDNLDLLPGNTRTKIGFITFDSTIHFYGLQESLSQPQMLIVSDIEDVFIPMPENLLVNLNESKELVQDLLKTLPQMFTKTLETQSALGPALQAAFKLMSPTGGRMSVFQTQLPTLGVGALKPREEPNHRSSAKDIHMTPSTDFYKKLALDCSGQQVAVDLFLLSGQYSDLASLGCISRYSAGSVYYYPSYHHQHNPVQVQKLQKELQRYLTRKIGFEAVMRIRCTKGLSIHTFHGNFFVRSTDLLSLPNVNPDAGYAVQMSVEESLTDTQLVSFQSALLYTSSKGERRIRVHTLCLPVVSTLNDVFLGADVQAISGLLANMAVDRSMTASLSDARDALVNAVIDSLSAYRSSVLSNQQPGLMVPFSLRLFPLFVLALLKQKSFQTGTNARLDERIFAMCQVKNQPLVYLMLTTHPSLYRVDNLSDEGALNISDRTIPQPPILQLSVEKLSRDGAFLMDAGSVLMLWVGKNCTQNFLSQVLGVQNYASIPQPMTDLPELDTPESARIIAFISWLREQRPFFPILYVIRDESPMKANFLQNMIEDRTESALSYYEFLLHIQQQVNK |
| binds | binds | RFP-tagged SEC24B (protein, UniProt O95487 1-1268) MSAPAGSSHPAASARIPPKFGGAAVSGAAAPAGPGAGPAPHQQNGPAQNQMQVPSGYGLHHQNYIAPSGHYSQGPGKMTSLPLDTQCGDYYSALYTVPTQNVTPNTVNQQPGAQQLYSRGPPAPHIVGSTLGSFQGAASSASHLHTSASQPYSSFVNHYNSPAMYSASSSVASQGFPSTCGHYAMSTVSNAAYPSVSYPSLPAGDTYGQMFTSQNAPTVRPVKDNSFSGQNTAISHPSPLPPLPSQQHHQQQSLSGYSTLTWSSPGLPSTQDNLIRNHTGSLAVANNNPTITVADSLSCPVMQNVQPPKSSPVVSTVLSGSSGSSSTRTPPTANHPVEPVTSVTQPSELLQQKGVQYGEYVNNQASSAPTPLSSTSDDEEEEEEDEEAGVDSSSTTSSASPMPNSYDALEGGSYPDMLSSSASSPAPDPAPEPDPASAPAPASAPAPVVPQPSKMAKPFGYGYPTLQPGYQNATAPLISGVQPSNPVYSGFQQYPQQYPGVNQLSSSIGGLSLQSSPQPESLRPVNLTQERNILPMTPVWAPVPNLNADLKKLNCSPDSFRCTLTNIPQTQALLNKAKLPLGLLLHPFRDLTQLPVITSNTIVRCRSCRTYINPFVSFIDQRRWKCNLCYRVNDVPEEFMYNPLTRSYGEPHKRPEVQNSTVEFIASSDYMLRPPQPAVYLFVLDVSHNAVEAGYLTILCQSLLENLDKLPGDSRTRIGFMTFDSTIHFYNLQEGLSQPQMLIVSDIDDVFLPTPDSLLVNLYESKELIKDLLNALPNMFTNTRETHSALGPALQAAFKLMSPTGGRVSVFQTQLPSLGAGLLQSREDPNQRSSTKVVQHLGPATDFYKKLALDCSGQQTAVDLFLLSSQYSDLASLACMSKYSAGCIYYYPSFHYTHNPSQAEKLQKDLKRYLTRKIGFEAVMRIRCTKGLSMHTFHGNFFVRSTDLLSLANINPDAGFAVQLSIEESLTDTSLVCFQTALLYTSSKGERRIRVHTLCLPVVSSLADVYAGVDVQAAICLLANMAVDRSVSSSLSDARDALVNAVVDSLSAYGSTVSNLQHSALMAPSSLKLFPLYVLALLKQKAFRTGTSTRLDDRVYAMCQIKSQPLVHLMKMIHPNLYRIDRLTDEGAVHVNDRIVPQPPLQKLSAEKLTREGAFLMDCGSVFYIWVGKGCDNNFIEDVLGYTNFASIPQKMTHLPELDTLSSERARSFITWLRDSRPLSPILHIVKDESPAKAEFFQHLIEDRTEAAFSYYEFLLHVQQQICK |
